From patent US20250145665A1, “MACROCYCLIC PEPTIDES USEFUL AS MODULATORS OF TNF ALPHA” (Bristol-Myers Squibb Company, priority 2023, published 2025)
Some results were stated once for a whole list of compounds, not compound by compound. Starred links: 1 amine or outer side, 2 acyl side, 3 side chain; linkers in the order of their positions; H or OH if unused. Positions of bridges follow the written chain, without caps; N, C: chain ends. Non-standard residues stand in square brackets, D forms with d. Residues, ends and D or L forms follow the SMILES beside them. Bip(4'-NHCO-C6H4-4-CH2COOH) = N[C@@H](Cc1ccc(-c2ccc(NC(=O)c3ccc(CC(=O)O)cc3)cc2)cc1)C(=O)O; X43 = O=C(O)[C@@H]1CCC[C@H](C(=O)Nc2ccc(-c3ccc(C[C@H](N[*:1])C(=O)[*:2])cc3)cc2)C1; X52 = Cc1c(C(=O)O)cccc1C(=O)Nc1ccc(-c2ccc(C[C@H](N[*:1])C(=O)[*:2])cc2)cc1; X77 = Cc1ccc(C(=O)O)cc1C(=O)Nc1ccc(-c2ccc(C[C@H](N[*:1])C(=O)[*:2])cc2)cc1; Bip(4'-COOH) = N[C@@H](Cc1ccc(-c2ccc(C(=O)O)cc2)cc1)C(=O)O; Bip(4'-NHAc) = CC(=O)Nc1ccc(-c2ccc(C[C@H](N)C(=O)O)cc2)cc1; Ala(imidazol-2-yl) = N[C@@H](Cc1ncc[nH]1)C(=O)O; Ala(morpholin-4-yl) = N[C@@H](CN1CCOCC1)C(=O)O; Phe(3-CONH2) = NC(=O)c1cccc(C[C@H](N)C(=O)O)c1; Bip = N[C@@H](Cc1ccc(-c2ccccc2)cc1)C(=O)O; Ala(2-furyl) = N[C@@H](Cc1ccco1)C(=O)O; 2Pal = N[C@@H](Cc1ccccn1)C(=O)O; 2Thi = N[C@@H](Cc1cccs1)C(=O)O; Cha = N[C@@H](CC1CCCCC1)C(=O)O; Chg = N[C@H](C(=O)O)C1CCCCC1; Sar = CNCC(=O)O

The chains behind the UniProt entries cited, without tags or fusion partners. Residues count along the entry.
UniProt P01375, 77-233 limits assumed: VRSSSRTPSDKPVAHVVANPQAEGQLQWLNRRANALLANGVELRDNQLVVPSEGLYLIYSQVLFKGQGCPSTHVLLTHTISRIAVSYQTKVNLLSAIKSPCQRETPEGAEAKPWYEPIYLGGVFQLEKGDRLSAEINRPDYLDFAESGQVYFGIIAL

Biological target: TNFα (Homo sapiens, UniProt P01375)
Experiment: TNF-Induced HEK-Blue Assay
Type: cell-based
Details: summary statement for all examples; read-out: IC50 values measured in the TNF induced HEK-Blue assay

IC50, ≤ 25 µM:
CC[C@H](C)[C@@H]1NC(=O)[C@@H](CCCNC(=N)N)NC(=O)[C@H](CC(=O)O)NC(=O)[C@H](Cc2cnc[nH]2)NC(=O)CN(C)C(=O)[C@H](Cc2ccc(-c3ccc(NC(=O)c4ccc(CC(=O)O)cc4)cc3)cc2)NC(=O)[C@H](Cc2ccc(-c3ccccc3)cc2)NC(=O)[C@H](CC2CCCCC2)NC(=O)CSC[C@@H](C(=O)NCC(N)=O)NC(=O)[C@H](CC(C)C)NC(=O)[C@H](Cc2cnc[nH]2)NC(=O)[C@H](C(C)C)NC(=O)[C@@H]2CCCN2C1=O [Example 445] ({CH2CO}-[Cha][Bip][Bip(4'-NHCO-C6H4-4-CH2COOH)][Sar]HD[dR]IPVHLCG-NH2; thioether N-13)
CC[C@H](C)[C@@H]1NC(=O)[C@@H](CCCNC(=N)N)NC(=O)[C@H](CC(=O)O)NC(=O)[C@H](Cc2cnc[nH]2)NC(=O)CN(C)C(=O)[C@H](Cc2ccc(-c3ccc(NC(=O)[C@H]4CCC[C@@H](C(=O)O)C4)cc3)cc2)NC(=O)[C@H](Cc2ccc(-c3ccccc3)cc2)NC(=O)[C@H](CC2CCCCC2)NC(=O)CSC[C@@H](C(=O)NCC(N)=O)NC(=O)[C@H](CC(C)C)NC(=O)[C@H](Cc2cnc[nH]2)NC(=O)[C@H](C(C)C)NC(=O)[C@@H]2CCCN2C1=O [Example 446] ({CH2CO}-[Cha][Bip][X43][Sar]HD[dR]IPVHLCG-NH2; thioether N-13)
CC[C@H](C)[C@@H]1NC(=O)[C@@H](CCCNC(=N)N)NC(=O)[C@H](CC(=O)O)NC(=O)[C@H](Cc2cnc[nH]2)NC(=O)CN(C)C(=O)[C@H](Cc2ccc(-c3ccc(NC(=O)c4cccc(C(=O)O)c4C)cc3)cc2)NC(=O)[C@H](Cc2ccc(-c3ccccc3)cc2)NC(=O)[C@H](CC2CCCCC2)NC(=O)CSC[C@@H](C(=O)NCC(N)=O)NC(=O)[C@H](CC(C)C)NC(=O)[C@H](Cc2cnc[nH]2)NC(=O)[C@H](C(C)C)NC(=O)[C@@H]2CCCN2C1=O [Example 447] ({CH2CO}-[Cha][Bip][X52][Sar]HD[dR]IPVHLCG-NH2; thioether N-13)
CC[C@H](C)[C@@H]1NC(=O)[C@@H](CCCNC(=N)N)NC(=O)[C@H](CC(=O)O)NC(=O)[C@H](Cc2cnc[nH]2)NC(=O)CN(C)C(=O)[C@H](Cc2ccc(-c3ccc(NC(=O)c4cc(C(=O)O)ccc4C)cc3)cc2)NC(=O)[C@H](Cc2ccc(-c3ccccc3)cc2)NC(=O)[C@H](CC2CCCCC2)NC(=O)CSC[C@@H](C(=O)NCC(N)=O)NC(=O)[C@H](CC(C)C)NC(=O)[C@H](Cc2cnc[nH]2)NC(=O)[C@H](C(C)C)NC(=O)[C@@H]2CCCN2C1=O [Example 450] ({CH2CO}-[Cha][Bip][X77][Sar]HD[dR]IPVHLCG-NH2; thioether N-13)
CC(=O)Nc1ccc(-c2ccc(C[C@@H]3NC(=O)[C@H](Cc4ccc(-c5ccccc5)cc4)NC(=O)[C@H](CC4CCCCC4)NC(=O)CSC[C@@H](C(=O)NCC(N)=O)NC(=O)[C@H](CC(C)C)NC(=O)[C@H](Cc4ncc[nH]4)NC(=O)[C@H](C(C)C)NC(=O)[C@@H]4CCCN4C(=O)[C@H](C(C)C)NC(=O)[C@@H](CCCNC(=N)N)NC(=O)[C@H](CC(=O)O)NC(=O)[C@H](Cc4ccco4)NC(=O)CN(C)C3=O)cc2)cc1 [Example 451] ({CH2CO}-[Cha][Bip][Bip(4'-NHAc)][Sar][Ala(2-furyl)]D[dR]VPV[Ala(imidazol-2-yl)]LCG-NH2; thioether N-13)
CC(=O)Nc1ccc(-c2ccc(C[C@@H]3NC(=O)[C@H](Cc4ccc(-c5ccccc5)cc4)NC(=O)[C@H](CN4CCOCC4)NC(=O)CSC[C@@H](C(=O)NCC(N)=O)NC(=O)[C@H](CC(C)C)NC(=O)[C@H](Cc4cccs4)NC(=O)[C@H](C4CCCCC4)NC(=O)[C@@H]4CCCN4C(=O)[C@H](C(C)C)NC(=O)[C@@H](CCCNC(=N)N)NC(=O)[C@H](CC(=O)O)NC(=O)[C@H](Cc4ccccn4)NC(=O)CN(C)C3=O)cc2)cc1 [Example 452] ({CH2CO}-[Ala(morpholin-4-yl)][Bip][Bip(4'-NHAc)][Sar][2Pal]D[dR]VP[Chg][2Thi]LCG-NH2; thioether N-13)
CC(=O)Nc1ccc(-c2ccc(C[C@@H]3NC(=O)[C@H](Cc4ccc(-c5ccc(C(=O)O)cc5)cc4)NC(=O)[C@H](CN4CCOCC4)NC(=O)CSC[C@@H](C(=O)NCC(N)=O)NC(=O)[C@H](CC(C)C)NC(=O)[C@H](Cc4cccs4)NC(=O)[C@H](C(C)C)NC(=O)[C@@H]4CCCN4C(=O)[C@H](C(C)C)NC(=O)[C@@H](CCCNC(=N)N)NC(=O)[C@H](CC(=O)O)NC(=O)[C@H](Cc4cnc[nH]4)NC(=O)CN(C)C3=O)cc2)cc1 [Example 453] ({CH2CO}-[Ala(morpholin-4-yl)][Bip(4'-COOH)][Bip(4'-NHAc)][Sar]HD[dR]VPV[2Thi]LCG-NH2; thioether N-13)
CC(=O)Nc1ccc(-c2ccc(C[C@@H]3NC(=O)[C@H](Cc4ccc(-c5ccccc5)cc4)NC(=O)[C@H](CN4CCOCC4)NC(=O)CSC[C@@H](C(=O)NCC(N)=O)NC(=O)[C@H](CC(C)C)NC(=O)[C@H](Cc4ccccc4)NC(=O)[C@H](C4CCCCC4)NC(=O)[C@@H]4CCCN4C(=O)[C@H](C(C)C)NC(=O)[C@@H](CCCNC(=N)N)NC(=O)[C@H](CC(=O)O)NC(=O)[C@H](Cc4ccccn4)NC(=O)CN(C)C3=O)cc2)cc1 [Example 454] ({CH2CO}-[Ala(morpholin-4-yl)][Bip][Bip(4'-NHAc)][Sar][2Pal]D[dR]VP[Chg]FLCG-NH2; thioether N-13)
CC(=O)Nc1ccc(-c2ccc(C[C@@H]3NC(=O)[C@H](Cc4ccc(-c5ccccc5)cc4)NC(=O)[C@H](CN4CCOCC4)NC(=O)CSC[C@@H](C(=O)NCC(N)=O)NC(=O)[C@H](CC(C)C)NC(=O)[C@H](Cc4cccc(C(N)=O)c4)NC(=O)[C@H](C(C)C)NC(=O)[C@@H]4CCCN4C(=O)[C@H](C(C)C)NC(=O)[C@@H](CCCNC(=N)N)NC(=O)[C@H](CC(=O)O)NC(=O)[C@H](Cc4ccccc4)NC(=O)CN(C)C3=O)cc2)cc1 [Example 455] ({CH2CO}-[Ala(morpholin-4-yl)][Bip][Bip(4'-NHAc)][Sar]FD[dR]VPV[Phe(3-CONH2)]LCG-NH2; thioether N-13)
CC(=O)Nc1ccc(-c2ccc(C[C@@H]3NC(=O)[C@H](Cc4ccc(-c5ccccc5)cc4)NC(=O)[C@H](CN4CCOCC4)NC(=O)CSC[C@@H](C(=O)NCC(N)=O)NC(=O)[C@H](CC(C)C)NC(=O)[C@H](Cc4cccc(C(N)=O)c4)NC(=O)[C@H](C(C)C)NC(=O)[C@@H]4CCCN4C(=O)[C@H](C(C)C)NC(=O)[C@@H](CCCNC(=N)N)NC(=O)[C@H](CC(=O)O)NC(=O)[C@H](Cc4ccc(O)cc4)NC(=O)CN(C)C3=O)cc2)cc1 [Example 456] ({CH2CO}-[Ala(morpholin-4-yl)][Bip][Bip(4'-NHAc)][Sar]YD[dR]VPV[Phe(3-CONH2)]LCG-NH2; thioether N-13)
CC(=O)Nc1ccc(-c2ccc(C[C@@H]3NC(=O)[C@H](Cc4ccc(-c5ccc(C(=O)O)cc5)cc4)NC(=O)[C@H](CN4CCOCC4)NC(=O)CSC[C@@H](C(=O)NCC(N)=O)NC(=O)[C@H](CC(C)C)NC(=O)[C@H](Cc4cccc(C(N)=O)c4)NC(=O)[C@H](C(C)C)NC(=O)[C@@H]4CCCN4C(=O)[C@H](C(C)C)NC(=O)[C@@H](CCCNC(=N)N)NC(=O)[C@H](CC(=O)O)NC(=O)[C@H](Cc4ccc(O)cc4)NC(=O)CN(C)C3=O)cc2)cc1 [Example 457] ({CH2CO}-[Ala(morpholin-4-yl)][Bip(4'-COOH)][Bip(4'-NHAc)][Sar]YD[dR]VPV[Phe(3-CONH2)]LCG-NH2; thioether N-13)
CC(=O)Nc1ccc(-c2ccc(C[C@@H]3NC(=O)[C@H](Cc4ccc(-c5ccc(C(=O)O)cc5)cc4)NC(=O)[C@H](CN4CCOCC4)NC(=O)CSC[C@@H](C(=O)NCC(N)=O)NC(=O)[C@H](CC(C)C)NC(=O)[C@H](Cc4cccc(C(N)=O)c4)NC(=O)[C@H](C(C)C)NC(=O)[C@@H]4CCCN4C(=O)[C@H](C(C)C)NC(=O)[C@@H](CCCNC(=N)N)NC(=O)[C@H](CC(=O)O)NC(=O)[C@H](Cc4ccccc4)NC(=O)CN(C)C3=O)cc2)cc1 [Example 458] ({CH2CO}-[Ala(morpholin-4-yl)][Bip(4'-COOH)][Bip(4'-NHAc)][Sar]FD[dR]VPV[Phe(3-CONH2)]LCG-NH2; thioether N-13)
CC(=O)Nc1ccc(-c2ccc(C[C@@H]3NC(=O)[C@H](Cc4ccc(-c5ccccc5)cc4)NC(=O)[C@H](CN4CCOCC4)NC(=O)CSC[C@@H](C(=O)NCC(N)=O)NC(=O)[C@H](CC(C)C)NC(=O)[C@H](Cc4cccc(C(N)=O)c4)NC(=O)[C@H](C4CCCCC4)NC(=O)[C@@H]4CCCN4C(=O)[C@H](C(C)C)NC(=O)[C@@H](CCCNC(=N)N)NC(=O)[C@H](CC(=O)O)NC(=O)[C@H](Cc4ccccc4)NC(=O)CN(C)C3=O)cc2)cc1 [Example 459] ({CH2CO}-[Ala(morpholin-4-yl)][Bip][Bip(4'-NHAc)][Sar]FD[dR]VP[Chg][Phe(3-CONH2)]LCG-NH2; thioether N-13)
CC(=O)Nc1ccc(-c2ccc(C[C@@H]3NC(=O)[C@H](Cc4ccc(-c5ccccc5)cc4)NC(=O)[C@H](CN4CCOCC4)NC(=O)CSC[C@@H](C(=O)NCC(N)=O)NC(=O)[C@H](CC(C)C)NC(=O)[C@H](Cc4ncc[nH]4)NC(=O)[C@H](C(C)C)NC(=O)[C@@H]4CCCN4C(=O)[C@H](C(C)C)NC(=O)[C@@H](CCCNC(=N)N)NC(=O)[C@H](CC(=O)O)NC(=O)[C@H](Cc4cccs4)NC(=O)CN(C)C3=O)cc2)cc1 [Example 461] ({CH2CO}-[Ala(morpholin-4-yl)][Bip][Bip(4'-NHAc)][Sar][2Thi]D[dR]VPV[Ala(imidazol-2-yl)]LCG-NH2; thioether N-13)
CC(=O)Nc1ccc(-c2ccc(C[C@@H]3NC(=O)[C@H](Cc4ccc(-c5ccc(C(=O)O)cc5)cc4)NC(=O)[C@H](CN4CCOCC4)NC(=O)CSC[C@@H](C(=O)NCC(N)=O)NC(=O)[C@H](CC(C)C)NC(=O)[C@H](Cc4ncc[nH]4)NC(=O)[C@H](C(C)C)NC(=O)[C@@H]4CCCN4C(=O)[C@H](C(C)C)NC(=O)[C@@H](CCCNC(=N)N)NC(=O)[C@H](CC(=O)O)NC(=O)[C@H](Cc4cccs4)NC(=O)CN(C)C3=O)cc2)cc1 [Example 462] ({CH2CO}-[Ala(morpholin-4-yl)][Bip(4'-COOH)][Bip(4'-NHAc)][Sar][2Thi]D[dR]VPV[Ala(imidazol-2-yl)]LCG-NH2; thioether N-13)
